Values from PubChem BioAssay AID1259283 (Sanger Institute, 2017).

Screen: 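Kinases needed for HT115 growth and partners for drug synergy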 (primary screen)
Cell system: HT115 colorectal cancer cells
Knock-down reagent: siRNA pool against human genes
Conditions: anchor drug given one day after siRNA: BYL719 at 1 µM, cetuximab at 5 µg/ml, trametinib at 10 nM, or DMSO vehicle alone
Detection: 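Viability normalised to non-targeting pool #2 wells and averaged over replicates, robust z-score against control wells, and a synergy score for each of three drugs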
Direction: robust z-score, knock-down alone: higher = more viable cells after knock-down; viability, DMSO vs non-targeting control: higher = more viable cells
Hit rule: 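Essential gene: robust z-score less than -3 with no drug added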
Calls: active = essential (z below -3, no drug); inactive = no change without drug
The deposit covers 794 reagents; below is an unselected part. Over the whole deposit, 14 (1.8%) are marked active. 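Calls reflect only viability loss without drug; drug synergy does not enter the call.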 Entries without a mark were called inactive. No viability above 1 is reported: the scale is capped. Not all columns of the deposit are shown. Not given: the amount of reagent, the time to read-out.

| Gene | robust z-score, knock-down alone | viability, DMSO vs non-targeting control (fraction of control) |
| --- | --- | --- |
| CILK1 (GeneID 22858) | -0.0391 | 0.923 |
| PFKM (GeneID 5213) | 0.579 | 0.981 |
| CDK5R2 (GeneID 8941) | -0.265 | 0.903 |
| HIPK1 (GeneID 204851) | 0.789 | 1 |
| SMG1 (GeneID 23049) | -3.43 (active) | 0.61 |
| AK7 (GeneID 122481) | -0.571 | 0.874 |
| PRKAR2B (GeneID 5577) | -0.349 | 0.895 |
| CDK13 (GeneID 8621) | 0.789 | 1 |
| NIM1K (GeneID 167359) | -0.221 | 0.907 |
| BCR (GeneID 613) | -1.82 | 0.759 |
| STYK1 (GeneID 55359) | -1.1 | 0.825 |
| PRKAA1 (GeneID 5562) | 0.765 | 0.998 |
| SYK (GeneID 6850) | -1.21 | 0.816 |
| ADK (GeneID 132) | 0.789 | 1 |
| PRAG1 (GeneID 157285) | -1.58 | 0.781 |
| FES (GeneID 2242) | 0.188 | 0.944 |
| PDK3 (GeneID 5165) | 0.169 | 0.943 |
| CSNK1G2 (GeneID 1455) | 0.789 | 1 |
| PKDCC (GeneID 91461) | 0.169 | 0.943 |
| SMAD4 (GeneID 4089) | 0.453 | 0.969 |
